# Primary screen of a compound library

Chains of the proteins cited; added tags and fusions are not shown.
UniProt I6X8D2, whole entry: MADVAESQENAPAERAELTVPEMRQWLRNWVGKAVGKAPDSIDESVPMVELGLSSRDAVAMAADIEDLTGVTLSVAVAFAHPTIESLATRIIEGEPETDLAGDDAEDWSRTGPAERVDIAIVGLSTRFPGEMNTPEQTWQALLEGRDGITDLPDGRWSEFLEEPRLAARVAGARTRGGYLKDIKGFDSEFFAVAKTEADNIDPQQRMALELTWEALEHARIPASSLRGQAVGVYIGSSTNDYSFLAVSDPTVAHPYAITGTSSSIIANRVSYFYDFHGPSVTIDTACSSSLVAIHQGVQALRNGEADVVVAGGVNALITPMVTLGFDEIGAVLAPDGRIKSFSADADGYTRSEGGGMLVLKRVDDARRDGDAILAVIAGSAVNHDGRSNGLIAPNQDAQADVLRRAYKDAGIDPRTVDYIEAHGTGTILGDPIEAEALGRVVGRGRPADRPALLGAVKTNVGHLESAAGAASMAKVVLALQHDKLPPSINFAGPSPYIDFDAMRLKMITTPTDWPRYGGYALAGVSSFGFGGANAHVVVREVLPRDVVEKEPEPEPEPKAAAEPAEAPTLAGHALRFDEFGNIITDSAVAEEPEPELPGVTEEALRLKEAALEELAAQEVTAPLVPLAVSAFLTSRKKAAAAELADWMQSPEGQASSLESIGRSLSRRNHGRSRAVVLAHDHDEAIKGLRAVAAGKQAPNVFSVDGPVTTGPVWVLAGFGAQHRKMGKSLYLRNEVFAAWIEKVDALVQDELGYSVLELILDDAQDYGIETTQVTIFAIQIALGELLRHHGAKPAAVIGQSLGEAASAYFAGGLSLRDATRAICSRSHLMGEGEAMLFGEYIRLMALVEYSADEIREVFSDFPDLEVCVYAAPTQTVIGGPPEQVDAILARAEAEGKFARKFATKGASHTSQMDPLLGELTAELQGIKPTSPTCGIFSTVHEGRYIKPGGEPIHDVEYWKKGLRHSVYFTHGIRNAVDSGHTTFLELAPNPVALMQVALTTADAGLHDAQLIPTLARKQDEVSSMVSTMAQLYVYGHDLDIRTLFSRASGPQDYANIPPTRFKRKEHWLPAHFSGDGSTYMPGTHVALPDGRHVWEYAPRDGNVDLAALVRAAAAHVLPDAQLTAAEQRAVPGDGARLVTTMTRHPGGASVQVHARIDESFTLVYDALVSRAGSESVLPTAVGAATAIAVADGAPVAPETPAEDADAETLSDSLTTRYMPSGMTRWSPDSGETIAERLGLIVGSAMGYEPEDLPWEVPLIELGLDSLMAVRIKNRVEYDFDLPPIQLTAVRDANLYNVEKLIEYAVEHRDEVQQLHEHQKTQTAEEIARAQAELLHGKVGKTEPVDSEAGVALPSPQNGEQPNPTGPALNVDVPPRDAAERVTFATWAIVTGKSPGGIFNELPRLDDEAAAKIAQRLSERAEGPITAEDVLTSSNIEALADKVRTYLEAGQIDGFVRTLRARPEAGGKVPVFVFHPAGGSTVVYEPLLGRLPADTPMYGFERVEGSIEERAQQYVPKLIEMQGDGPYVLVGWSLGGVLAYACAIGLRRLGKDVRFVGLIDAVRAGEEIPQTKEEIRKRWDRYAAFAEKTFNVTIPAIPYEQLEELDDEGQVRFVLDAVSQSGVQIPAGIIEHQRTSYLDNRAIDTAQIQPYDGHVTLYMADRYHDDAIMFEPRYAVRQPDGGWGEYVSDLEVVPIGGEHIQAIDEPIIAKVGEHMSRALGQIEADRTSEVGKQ

Toxoplasma: 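Assay of Toxoplasma gondii numbers, read through their beta-galactosidase reporter with a colour substrate. Tested at 10 µM. The record gives no direction; the compounds picked for IC50 retests had high values, so higher reads as fewer parasites. About 67,000 compounds were tested under these conditions; 0.38% (about 260) showed 50% or more at least once.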
Pks13 thioesterase: 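Polyketide synthase Pks13, Mycobacterium tuberculosis (UniProt I6X8D2). Enzyme assay of the thioesterase domain of polyketide synthase 13; the read-out is not stated. Concentration: 30 µM. Higher reads as stronger inhibition (inferred from which compounds were picked for retests). Size under these conditions: about 67,000 compounds, about 300 of them at 50% or above in at least one test.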

Results are given as percent effect. The record does not define 0% and 100%; most values in the screen are far below 50% and negative numbers occur (in some assays of this library far below -100). This is an unselected part of the compounds tested.

structure: CC(C)(C)CC(=O)Nc1cnn(-c2ccccc2S(C)(=O)=O)c1
Toxoplasma: 10.51%
Pks13 thioesterase: -3.624%

structure: CCCS(=O)(=O)N1C[C@H]2C[C@H](C(=O)N3CCN(C)CC3)[C@@H](C1)O2
Pks13 thioesterase: -14.84%

structure: Cc1nc(C(C)(C)NCc2nnc(C(C)C)o2)sc1C
Toxoplasma: 9.029%
Pks13 thioesterase: 5.197%

structure: C=C(C)COc1ccccc1NC(=O)NC1CCOCC1
Toxoplasma: 4.531%
Pks13 thioesterase: -42.28%

structure: CC(NC(=O)c1cccs1)C(=O)NS(=O)(=O)c1ccc(C#N)cc1 (stereo unspecified)
Toxoplasma: -1.112%

structure: CC(Oc1cccc(F)c1)C(=O)N(CC(N)=O)C1CCCC1 (stereo unspecified)
Toxoplasma: 5.853%

structure: Cc1nc(N)sc1C(=O)N[C@H]1CN(CCO)C[C@@H]1C1CC1
Toxoplasma: -0.8646%
Pks13 thioesterase: -19.33%

structure: Cc1ccc(CNCc2c(C)nn(C)c2N(C)C)cn1
Toxoplasma: -4.116%
Pks13 thioesterase: -9.256%

structure: COCC[C@]1(O)CCN(C2CCN(C(=O)C3CCC3)CC2)C[C@H]1C
Toxoplasma: 20.17%

structure: CCOCC(=O)N1CCC[C@]2(C[C@@H](OCc3ccncc3)CO2)C1
Toxoplasma: -2.217%

structure: Cc1cc(C)n(CC2CCCN2C(=O)c2ccc3[nH]nnc3c2)n1 (stereo unspecified)
Toxoplasma: -0.2189%
Pks13 thioesterase: -85.37%

structure: CC(=O)Nc1ccc(CNCc2ccc(CS(C)(=O)=O)cc2)cc1
Toxoplasma: -8.75%
Pks13 thioesterase: -6.476%

structure: O=C(O)C(F)(F)F.[H][C@@]12COC[C@]1(COCc1csc(C)n1)CN(Cc1cc(C)on1)C2
Toxoplasma: 8.651%

structure: Cc1cc(C2CCCN2C(=O)Cn2c(C)cc(=O)c3ccccc32)on1 (stereo unspecified)
Toxoplasma: 1.51%
Pks13 thioesterase: -2.596%

structure: CCC[C@@H]1CN(C(=O)c2c(F)ccc(C)c2Cl)C[C@H]1C(=O)O
Toxoplasma: -7.936%
Pks13 thioesterase: -13.73%

structure: Cc1c(C(=O)N2CC(O)C2)nnn1-c1cccc2cnccc12
Toxoplasma: -5.498%
Pks13 thioesterase: 1.16%

structure: CCC(C)c1cc(C(=O)N(CC(=O)NC)c2cccc(F)c2)on1 (stereo unspecified)
Toxoplasma: -9.225%
Pks13 thioesterase: 10.63%

structure: CCc1nsc(N2CCc3sccc3C2)n1
Toxoplasma: 2.051%
Pks13 thioesterase: -8.209%

structure: CCOc1ccc(C2SCC(=O)Nc3c2c(=O)[nH]n3C(C)C)cc1 (stereo unspecified)
Toxoplasma: 7.846%
Pks13 thioesterase: -15.99%

structure: COCC(C)(CCO)NC(=O)Nc1cccc(F)c1C (stereo unspecified)
Toxoplasma: -3.228%
Pks13 thioesterase: 2.598%

structure: CCC(C)C(=O)NCc1ccn(-c2ccc(F)cc2)n1 (stereo unspecified)
Toxoplasma: -12.64%
Pks13 thioesterase: -14.57%

structure: Cc1ccc(Oc2ncccc2C(=O)N(C)CCCN(C)C)c(C)c1
Toxoplasma: 16.27%
Pks13 thioesterase: 0.3866%

structure: NC(=O)C(CNC(=O)Cc1ccsc1)Cc1ccc(F)cc1 (stereo unspecified)
Toxoplasma: 4.524%
Pks13 thioesterase: -9.539%

structure: Cn1cc(C(C)(O)CNC(=O)c2cc(Br)cn2C)cn1 (stereo unspecified)
Toxoplasma: -4.272%
Pks13 thioesterase: -13.19%

structure: CCn1ncnc1CN1CCc2[nH]cnc2C1Cc1ccccc1 (stereo unspecified)
Toxoplasma: -2.071%
Pks13 thioesterase: -47.03%

structure: COCCN1CCC2(CCCN(C(=O)c3ccoc3C)C2)C1=O (stereo unspecified)
Toxoplasma: 7.173%
Pks13 thioesterase: 0.4907%

structure: O=C(NCC(F)F)c1ccc(S(=O)(=O)NCCc2ccncc2)cc1
Toxoplasma: 10.02%
Pks13 thioesterase: -11.93%

structure: Cc1ccc(-c2nc(CNc3ccc(C(N)=O)c(C)c3)cs2)o1
Toxoplasma: 0.9091%
Pks13 thioesterase: -14.96%

structure: CC(CNC1CCN(Cc2ccncc2)CC1)c1ccc(F)cc1F (stereo unspecified)
Toxoplasma: 19.38%
Pks13 thioesterase: -14.54%

structure: O=C1NCC2(CCCN(CCc3ccccc3)C2)Oc2ccccc21 (stereo unspecified)
Toxoplasma: -21.33%
Pks13 thioesterase: -42.81%

structure: O=C(c1ccncc1)N1CCN2C[C@H](Oc3cccnc3)C[C@H]2C1
Pks13 thioesterase: 2.917%

structure: COCCN1C[C@@H]2[C@@H](OC)CCN(C(=O)c3cccc(OC)c3)[C@@H]2C1
Pks13 thioesterase: -3.831%

structure: CC(C)c1nc(C2CCCN2CC(=O)N2CCNC2=O)no1 (stereo unspecified)
Toxoplasma: -0.4234%
Pks13 thioesterase: -12.36%

structure: CCN1CC(C(=O)NCc2ccccc2-n2cccn2)CC1=O (stereo unspecified)
Toxoplasma: -2.894%
Pks13 thioesterase: -17.53%

structure: CN(Cc1ccccn1)C(=O)c1nc(S(C)(=O)=O)n2ccccc12
Toxoplasma: 12.99%
Pks13 thioesterase: -10.93%

structure: [H][C@@]12CCN(C(=O)C3CCOCC3)C[C@@]1([H])O[C@H](c1ccncn1)C2
Toxoplasma: 15.53%

structure: Cc1noc(C)c1Cn1cc(I)cc(C)c1=O
Toxoplasma: -4.359%
Pks13 thioesterase: -43.69%

structure: Clc1ccccc1-c1nnc(CSCCN2CCOCC2)o1
Toxoplasma: 2.245%
Pks13 thioesterase: -26.98%

structure: NS(=O)(=O)N1CCc2ccc(NC(=O)Cc3ccc(F)cc3)cc21
Toxoplasma: -3.065%
Pks13 thioesterase: -35.2%

structure: COCCC1COC2(CCN(C(=O)C3CCCC3)CC2)C1 (stereo unspecified)
Toxoplasma: -1.148%
Pks13 thioesterase: -16.81%

structure: Cc1ncsc1C(=O)NC1CCN(CCC#N)CC1
Toxoplasma: 18.33%
Pks13 thioesterase: -17.7%

Repeated from the top, 4 entries:

* CC(C)(C)CC(=O)Nc1cnn(-c2ccccc2S(C)(=O)=O)c1 | Toxoplasma: 10.51%; Pks13 thioesterase: -3.624%
* CCCS(=O)(=O)N1C[C@H]2C[C@H](C(=O)N3CCN(C)CC3)[C@@H](C1)O2 | Pks13 thioesterase: -14.84%
* Cc1nc(C(C)(C)NCc2nnc(C(C)C)o2)sc1C | Toxoplasma: 9.029%; Pks13 thioesterase: 5.197%
* C=C(C)COc1ccccc1NC(=O)NC1CCOCC1 | Toxoplasma: 4.531%; Pks13 thioesterase: -42.28%

Measurements from “University of Dundee, Small-Polar-MMV Screening Library” (2021), ChEMBL document CHEMBL3988442.